Experimental data: PubChem BioAssay AID1919016 (Molecular Pharmacology Branch, DTP, NCI, 2023)
Values joined by “and” are separate entries in the source; they are usually repeats but may differ in a detail not shown here. Equal values may be shown once. This continues a long series; more values of the same kind are listed elsewhere.

Tested on: NCI-H196 complex spheroid growth, percent test/control
Test: Anticancer human tumor NCI-H196 cell line growth inhibition [AhR];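 also: seven days of drug exposure starting three days after plating; 100% = DMSO vehicle control wells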
Details: stronger effect = lower value; active = viability on the fitted dose curve at most 10% of control; inactive = the rest
Excerpt: Multicellular complex tumor spheroid response to aryl hydrocarbon receptor antagonists in combination with a variety of drugs and investigational agents in selected tumor cell lines
The current study was undertaken to assess response to aryl hydrocarbon receptor antagonists in combination with standard-of-care drugs and investigational agents in solid tumor complex spheroid models. Complex spheroids include a stromal component modeled by human endothelial cells (HUVEC) and fibroblasts modeled by human mesenchymal stem cells (MSCs). The concentration ranges selected for each drug and investigational agent were based upon clinically achievable concentrations if the clinical Cmax of the agent was known.
Compounds. The drugs and investigational agents: BAY 2416964 (NSC825713), GNF351 (NSC835774), CH-223191 (NSC835775), CPI-455 (NSC825282), aza-TdCyd (NSC777586), decitabine (NSC127716), belinostat (NSC758774), entinostat (NSC756642), pevonedistat (NSC761192), tazemetostat (NSC777109), talazoparib (NSC765396), olaparib (NSC753686), selinexor (NSC780203), nedisertib (M3814, NSC802822), bortezomib (NSC756655), venetoclax (NSC766270), doxorubicin (NSC123127), elimusertib (BAY189344, NSC800525), ceralasertib (AZD6738, NSC777638), TAK-243 (NSC785004), alisertib (NSC759677), etoposide (NSC141540), topotecan (NSC609699), eribulin (NSC707389), gemcitabine (NSC613327), carboplatin (NSC241240), cisplatin (NSC119875), and SN-38 (NSC673596) were obtained from the National Cancer Institute (NCI) Developmental Therapeutics Program Chemical Repository (32). The FDA-approved anticancer drug set is available from the Developmental Therapeutics Program at https://dtp.cancer.gov/organization/dscb/obtaining/available plates.htm. […] The stock solutions were prepared in dimethyl sulfoxide (DMSO, Sigma-Aldrich, St. Louis, MO, cat. D2650), except for the platinum compounds which were prepared in saline (Quality Biological, Gaithersburg, MD, cat. 114-055-101), at 800-fold the tested concentration and stored at -70 degrees C prior to their use. All drugs and investigational agents were tested over a range starting from a high concentration at or near the clinical Cmax and decreasing in half-log increments. If the clinical Cmax for an agent had not been determined, the highest concentration tested was 10 microM (Table 1).
Cell Culture. All cells were maintained in an incubator at 37 degrees C and 5% CO2 with 95% humidity. The PDC lines were cultured according to standard operating procedures established by the NCI PDMR (https://pdmr.cancer.gov). Briefly, all PDCs were thawed and cultured in Matrigel-coated flasks prepared with a working solution of 1X Ham's F-12 nutrient mix, without supplementation (Invitrogen, Waltham, MA, cat. 11765054), 100 U/mL penicillin-streptomycin (Invitrogen, cat. 15140122), and 2.5% Matrigel (Corning Inc., Corning, NY, cat. 354248) for the first three passages. All PDCs were cultured in complete DMEM/F-12 media containing advanced DMEM/F-12 (Invitrogen, cat. 12634028), 4.9% defined fetal bovine serum, heat inactivated (HyClone Laboratories Inc., Logan, UT, cat. SH30070.03HI), 389 ng/mL hydrocortisone (Sigma-Aldrich, cat. H4001), 9.7 ng/mL human EGF recombinant protein (Invitrogen, cat. PHG0313), 23.4 microg/mL adenine (Sigma-Aldrich, cat. A2786), 97.3 U/mL penicillin-streptomycin (Invitrogen, cat. 15140122), 1.9 mM L-glutamine (Invitrogen, cat. 25030081), and 9.7 microM Y-27632 dihydrochloride (Tocris Bioscience, Bristol, United Kingdom, cat. 1254). The PDCs were cultured in complete DMEM/F12 media without 10 microM Y-27632 dihydrochloride for at least two passages prior to the screen. The established cell lines NCI-H1341 and […] were cultured in DMEM/F-12, HEPES (Invitrogen, cat. 11330032), 5% defined fetal bovine serum (HyClone Laboratories Inc., cat. SH30070.03), ITS premix universal culture supplement [insulin (5 microg/mL), transferrin (5 microg/mL), and selenious acid (5 ng/mL)] […]

Measured: viability, T/C

Cc1cncc(-c2nc(NCCc3c[nH]c4ccccc34)c3ncn(C(C)C)c3n2)c1
inactive: compound 0.316 µM 96.6% [middle of 5 runs] | compound 1 µM 110% and 86.1% | compound 3.16 µM 85.3% and 117% and 99.9% | compound 10 µM 90.9% and 71.2% (2×) and 86.2%

Cc1ccccc1N=Nc1ccc(NC(=O)c2ccnn2C)c(C)c1
inactive: compound 0.1 µM 97.5% [middle of 5 runs] | compound 0.316 µM 102% [middle of 4 runs] | compound 1 µM 94.6% [middle of 4 runs] | compound 3.16 µM 99.8% and 82.7% | compound 10 µM 89.6% [middle of 5 runs]

CC(CO)NC(=O)c1cc(-c2ccc(Cl)cc2)nn(-c2cnn(C)c2)c1=O (centres undefined)
inactive: compound 0.1 µM 115% and 95.5% | compound 0.316 µM 99.2% and 96.4% | compound 1 µM 86.1% and 114% | compound 3.16 µM 99.2% and 123% | compound 10 µM 94.9% and 121%
